According to article PMC6827007:
Results are given in words; binding and its absence hold for the method and conditions named.

Molecular target: C-terminal redox domain of Arabidopsis thaliana APR1 (AtAPR1), amino acids 353-461 (Arabidopsis thaliana) (UniProt P92979)
Test: SEC; HiPrep 16/60 Sephacryl S-200 HR column, 20 mM Tris-HCl pH 7.0, 200 mM NaCl; mass estimated against BioRad standard proteins; both purified

binding: no binding
B1: C-terminal redox domain of Arabidopsis thaliana APR1 (AtAPR1), amino acids 353-461 (domain or fragment, UniProt P92979 353-461)
chain: GSPEFMENLVTLSRQGIENLMKLENRKEPWIVVLYAPWCPFCQAMEASYDELADKLAGSGIKVAKFRADGDQKEFAKQELQLGSFPTILVFPKNSSRPIKYPSEKRDVESLTSFL
